Measurements published in US20250075190A1, “DE NOVO DESIGNED LUCIFERASE” (UNIVERSITY OF WASHINGTON, priority 2022, published 2025).

Experiment: Luminescence emission spectra of pure luciferases
Assay type: biochemical
Conditions: for λmax: luminescence emission with DTZ

Row | Molecule | luminescence emission peak (incubation with DTZ) [nm] | λmax [nm]
1 | LuxSit: de novo designed DTZ luciferase, 117 residues, SEQ ID NO:1 (protein, VARIANT 1 optionally absent; VARIANT 118 optionally absent) MSEEQIRQFLRRFYEALDSGDADTAASLFHPGVTIHLWDGVTFTSREEFREWFERLFSTRKDAQREIKSLEVRGDTVEVHVQLHATHNGQKHTVDATHHWHFRGNRVTEMRVHINPTG | ~480 | 478
2 | LuxSit-f: LuxSit variant A96M/M110V, SEQ ID NO:3, strong initial flash emission (protein, VARIANT 1 optionally absent; VARIANT 118 optionally absent) MSEEQIRQFLRRFYEALDSGDADTAASLFHPGVTIHLWDGVTFTSREEFREWFERLFSTRKDAQREIKSLEVRGDTVEVHVQLHATHNGQKHTVDMTHHWHFRGNRVTEVRVHINPTG |  | 480
3 | LuxSit-i: LuxSit variant R60S/A96L/M110V, SEQ ID NO:2, named for high brightness (protein, VARIANT 1 optionally absent; VARIANT 118 optionally absent) MSEEQIRQFLRRFYEALDSGDADTAASLFHPGVTIHLWDGVTFTSREEFREWFERLFSTSKDAQREIKSLEVRGDTVEVHVQLHATHNGQKHTVDLTHHWHFRGNRVTEVRVHINPTG |  | 482
4 | A96M: LuxSit mutant A96M (protein, VARIANT 1 optionally absent; VARIANT 118 optionally absent) MSEEQIRQFLRRFYEALDSGDADTAASLFHPGVTIHLWDGVTFTSREEFREWFERLFSTRKDAQREIKSLEVRGDTVEVHVQLHATHNGQKHTVDMTHHWHFRGNRVTEMRVHINPTG |  | 476
5 | M110V: LuxSit mutant M110V (protein, VARIANT 1 optionally absent; VARIANT 118 optionally absent) MSEEQIRQFLRRFYEALDSGDADTAASLFHPGVTIHLWDGVTFTSREEFREWFERLFSTRKDAQREIKSLEVRGDTVEVHVQLHATHNGQKHTVDATHHWHFRGNRVTEVRVHINPTG |  | 480
